# Over roughly 1,900 compounds, “excess over highest single agent (ExcessHSA) synergy score, 6x6 matrix” has its median near -83; the lowest 2% begin near -370. Some of the results follow.
# Tested on: NCI-H446
# Test: excess over highest single agent (ExcessHSA) synergy score, 6x6 matrix; higher = less synergy (more negative = stronger synergy)
# Settings: 72 h; CellTiter-Glo viability
row,SMILES,excess over highest single agent
1,CCc1c(C(=O)C(N)=O)c2c(OCC(=O)O)cccc2n1Cc1ccccc1 + Cc1sc2c(c1C)C(c1ccc(Cl)cc1)=N[C@@H](CC(=O)OC(C)(C)C)c1nnc(C)n1-2 [NCGC00250412-19],19.9
2,O=C1NC(=O)[C@@H](c2cn3c4c(cccc24)CCC3)[C@@H]1c1c[nH]c2ccccc12 + Cc1sc2c(c1C)C(c1ccc(Cl)cc1)=N[C@@H](CC(=O)OC(C)(C)C)c1nnc(C)n1-2 [NCGC00250412-19],-202
3,CCc1cnn2c(NCc3ccc[n+]([O-])c3)cc(N3CCCC[C@H]3CCO)nc12 + Cc1sc2c(c1C)C(c1ccc(Cl)cc1)=N[C@@H](CC(=O)OC(C)(C)C)c1nnc(C)n1-2 [NCGC00250412-19],-18.6
4,C[C@@]1(c2cc(-c3cncnc3)c(F)cc2F)CCSC(N)=N1 + Cc1sc2c(c1C)C(c1ccc(Cl)cc1)=N[C@@H](CC(=O)OC(C)(C)C)c1nnc(C)n1-2 [NCGC00250412-19],55.3
5,c1ccc2[nH]c(-c3cscn3)nc2c1 + Cc1sc2c(c1C)C(c1ccc(Cl)cc1)=N[C@@H](CC(=O)OC(C)(C)C)c1nnc(C)n1-2 [NCGC00250412-19],-241
6,Cn1cc(-c2ccc3nnc(C(F)(F)c4ccc5ncccc5c4)n3n2)cn1 + Cc1sc2c(c1C)C(c1ccc(Cl)cc1)=N[C@@H](CC(=O)OC(C)(C)C)c1nnc(C)n1-2 [NCGC00250412-19],-69.2
7,O=C(Nc1ncc(-c2cc(C(F)F)nn2-c2c(Cl)cccc2Cl)s1)C1CC1 + Cc1sc2c(c1C)C(c1ccc(Cl)cc1)=N[C@@H](CC(=O)OC(C)(C)C)c1nnc(C)n1-2 [NCGC00250412-19],-206
8,CNC(=O)Nc1ccc(-c2nc(N3CC4CCC(C3)O4)c3cnn(C4CCC5(CC4)OCCO5)c3n2)cc1 + Cc1sc2c(c1C)C(c1ccc(Cl)cc1)=N[C@@H](CC(=O)OC(C)(C)C)c1nnc(C)n1-2 [NCGC00250412-19],-274
9,CN1CC2c3ccccc3Oc3ccc(Cl)cc3C2C1 (configuration not stated) + Cc1sc2c(c1C)C(c1ccc(Cl)cc1)=N[C@@H](CC(=O)OC(C)(C)C)c1nnc(C)n1-2 [NCGC00250412-19],-289
10,COC1=C2C[C@@H](C)C[C@H](OC)[C@H](O)[C@@H](C)/C=C(\C)[C@H](OC(N)=O)[C@@H](OC)/C=C\C=C(/C)C(=O)NC(=CC1=O)C2=O + Cc1sc2c(c1C)C(c1ccc(Cl)cc1)=N[C@@H](CC(=O)OC(C)(C)C)c1nnc(C)n1-2 [NCGC00250412-19],-170
11,COc1ccc(-c2cc(=O)c3c(O)cc(O[C@@H]4O[C@H](CO[C@@H]5O[C@@H](C)[C@H](O)[C@@H](O)[C@H]5O)[C@@H](O)[C@H](O)[C@H]4O)cc3o2)cc1O + Cc1sc2c(c1C)C(c1ccc(Cl)cc1)=N[C@@H](CC(=O)OC(C)(C)C)c1nnc(C)n1-2 [NCGC00250412-19],-123
12,COc1cc(Nc2ncc(F)c(Nc3ccc4c(n3)N(COP(=O)(O)O)C(=O)C(C)(C)O4)n2)cc(OC)c1OC + Cc1sc2c(c1C)C(c1ccc(Cl)cc1)=N[C@@H](CC(=O)OC(C)(C)C)c1nnc(C)n1-2 [NCGC00250412-19],-95.5
13,CCCCCCCN(CC)CCCC(O)c1ccc(NS(C)(=O)=O)cc1 (configuration not stated) + Cc1sc2c(c1C)C(c1ccc(Cl)cc1)=N[C@@H](CC(=O)OC(C)(C)C)c1nnc(C)n1-2 [NCGC00250412-19],19
14,Cc1cccc(CN2CCN(C(c3ccccc3)c3ccc(Cl)cc3)CC2)c1 (configuration not stated) + Cc1sc2c(c1C)C(c1ccc(Cl)cc1)=N[C@@H](CC(=O)OC(C)(C)C)c1nnc(C)n1-2 [NCGC00250412-19],-145
15,COc1cnc(NS(=O)(=O)c2ccc(N)cc2)nc1 + Cc1sc2c(c1C)C(c1ccc(Cl)cc1)=N[C@@H](CC(=O)OC(C)(C)C)c1nnc(C)n1-2 [NCGC00250412-19],272
16,O=C(O)CCn1c2c(c3ccccc31)C[C@H](NS(=O)(=O)c1ccc(F)cc1)CC2 + Cc1sc2c(c1C)C(c1ccc(Cl)cc1)=N[C@@H](CC(=O)OC(C)(C)C)c1nnc(C)n1-2 [NCGC00250412-19],-70.7
17,O=NN(CCCl)C(=O)NC1CCCCC1 + Cc1sc2c(c1C)C(c1ccc(Cl)cc1)=N[C@@H](CC(=O)OC(C)(C)C)c1nnc(C)n1-2 [NCGC00250412-19],147
18,Nc1nc(F)nc2c1ncn2[C@@H]1O[C@H](CO)[C@@H](O)[C@H]1O + Cc1sc2c(c1C)C(c1ccc(Cl)cc1)=N[C@@H](CC(=O)OC(C)(C)C)c1nnc(C)n1-2 [NCGC00250412-19],-191
19,CCOC(=O)C1=C[C@]2(CC)CCCN3CCc4c(n1c1ccccc41)[C@@H]32 + Cc1sc2c(c1C)C(c1ccc(Cl)cc1)=N[C@@H](CC(=O)OC(C)(C)C)c1nnc(C)n1-2 [NCGC00250412-19],-195

row,SMILES,excess over highest single agent
1,COC[C@@H](NC(C)=O)C(=O)NCc1ccccc1 + Cc1sc2c(c1C)C(c1ccc(Cl)cc1)=N[C@@H](CC(=O)OC(C)(C)C)c1nnc(C)n1-2 [NCGC00250412-19],-71.4
2,CN1CCC(COc2cnc(-c3cccc(Cn4nc(-c5cccc(C#N)c5)ccc4=O)c3)nc2)CC1 + Cc1sc2c(c1C)C(c1ccc(Cl)cc1)=N[C@@H](CC(=O)OC(C)(C)C)c1nnc(C)n1-2 [NCGC00250412-19],-18.5
3,CC(C)c1cc(C(=O)N2Cc3ccc(CN4CCN(C)CC4)cc3C2)c(O)cc1O + Cc1sc2c(c1C)C(c1ccc(Cl)cc1)=N[C@@H](CC(=O)OC(C)(C)C)c1nnc(C)n1-2 [NCGC00250412-19],-247
4,N=c1c2c(-c3ccccc3)c(-c3ccccc3)n(Cc3ccccc3)c2ncn1[C@H]1CC[C@H](O)CC1 + Cc1sc2c(c1C)C(c1ccc(Cl)cc1)=N[C@@H](CC(=O)OC(C)(C)C)c1nnc(C)n1-2 [NCGC00250412-19],-331
5,Nc1ncnc2c1c(-c1cccc(OCc3ccccc3)c1)cn2C1CC(CN2CCC2)C1 (configuration not stated) + Cc1sc2c(c1C)C(c1ccc(Cl)cc1)=N[C@@H](CC(=O)OC(C)(C)C)c1nnc(C)n1-2 [NCGC00250412-19],-56.6
6,C[C@]12CC[C@@H]3c4ccc(O)cc4CC[C@H]3[C@@H]1CCC2=O + Cc1sc2c(c1C)C(c1ccc(Cl)cc1)=N[C@@H](CC(=O)OC(C)(C)C)c1nnc(C)n1-2 [NCGC00250412-19],-136
7,CCCCCCCCc1ccc(CCC(N)(CO)CO)cc1 + Cc1sc2c(c1C)C(c1ccc(Cl)cc1)=N[C@@H](CC(=O)OC(C)(C)C)c1nnc(C)n1-2 [NCGC00250412-19],-53.8
8,CC[C@H]1OC(=O)[C@H](C)C(=O)[C@H](C)[C@@H](O[C@@H]2O[C@H](C)C[C@H](N(C)C)[C@H]2O)[C@](C)(OC)C[C@@H](C)C(=O)[C@H](C)[C@H]2N(CCCCn3cnc(-c4cccnc4)c3)C(=O)O[C@]12C + Cc1sc2c(c1C)C(c1ccc(Cl)cc1)=N[C@@H](CC(=O)OC(C)(C)C)c1nnc(C)n1-2 [NCGC00250412-19],-231
9,N#C[C@@H]1C[C@@H]2C[C@@H]2N1C(=O)[C@@H](N)C12CC3CC(CC(O)(C3)C1)C2 + Cc1sc2c(c1C)C(c1ccc(Cl)cc1)=N[C@@H](CC(=O)OC(C)(C)C)c1nnc(C)n1-2 [NCGC00250412-19],378
10,O=C1CCc2cc(OCCCCc3nnnn3C3CCCCC3)ccc2N1 + Cc1sc2c(c1C)C(c1ccc(Cl)cc1)=N[C@@H](CC(=O)OC(C)(C)C)c1nnc(C)n1-2 [NCGC00250412-19],-180
11,CNC(=O)N1N=C(c2ccc(N)cc2)c2cc3c(cc2CC1C)OCO3 (configuration not stated) + Cc1sc2c(c1C)C(c1ccc(Cl)cc1)=N[C@@H](CC(=O)OC(C)(C)C)c1nnc(C)n1-2 [NCGC00250412-19],-19.1
12,CCC1=C(C)CN(C(=O)NCCc2ccc(S(=O)(=O)NC(=O)N[C@H]3CC[C@H](C)CC3)cc2)C1=O + Cc1sc2c(c1C)C(c1ccc(Cl)cc1)=N[C@@H](CC(=O)OC(C)(C)C)c1nnc(C)n1-2 [NCGC00250412-19],-65.4
13,Cc1ccccc1-n1c(Cn2nc(-c3cccc(O)c3)c3c(N)ncnc32)nc2cccc(C)c2c1=O + Cc1sc2c(c1C)C(c1ccc(Cl)cc1)=N[C@@H](CC(=O)OC(C)(C)C)c1nnc(C)n1-2 [NCGC00250412-19],-224
14,C[C@@]12C[C@@]3(O)O[C@@H](O1)[C@]1(COC(=O)c4ccccc4)[C@H]3C[C@@]12O[C@@H]1O[C@H](CO)[C@@H](O)[C@H](O)[C@H]1O + Cc1sc2c(c1C)C(c1ccc(Cl)cc1)=N[C@@H](CC(=O)OC(C)(C)C)c1nnc(C)n1-2 [NCGC00250412-19],-20.9
15,Cc1coc2c1C(=O)C(=O)c1c-2ccc2c(C)cccc12 + Cc1sc2c(c1C)C(c1ccc(Cl)cc1)=N[C@@H](CC(=O)OC(C)(C)C)c1nnc(C)n1-2 [NCGC00250412-19],-49.1
16,CCC(C)SSc1ncc[nH]1 (configuration not stated) + Cc1sc2c(c1C)C(c1ccc(Cl)cc1)=N[C@@H](CC(=O)OC(C)(C)C)c1nnc(C)n1-2 [NCGC00250412-19],-27.8
17,NS(=O)(=O)c1ccc(Nc2nc(OCC3CCCCC3)c3[nH]cnc3n2)cc1 + Cc1sc2c(c1C)C(c1ccc(Cl)cc1)=N[C@@H](CC(=O)OC(C)(C)C)c1nnc(C)n1-2 [NCGC00250412-19],-148
18,COc1ccc2cc1Oc1ccc(cc1)C[C@H]1c3cc(c(OC)cc3CCN1C)Oc1c(OC)c(OC)cc3c1[C@H](C2)N(C)CC3 + Cc1sc2c(c1C)C(c1ccc(Cl)cc1)=N[C@@H](CC(=O)OC(C)(C)C)c1nnc(C)n1-2 [NCGC00250412-19],-432

# Reprinted at random: 2 entries already listed
row,SMILES,excess over highest single agent
4,C[C@@]1(c2cc(-c3cncnc3)c(F)cc2F)CCSC(N)=N1 + Cc1sc2c(c1C)C(c1ccc(Cl)cc1)=N[C@@H](CC(=O)OC(C)(C)C)c1nnc(C)n1-2 [NCGC00250412-19],55.3
1,COC[C@@H](NC(C)=O)C(=O)NCc1ccccc1 + Cc1sc2c(c1C)C(c1ccc(Cl)cc1)=N[C@@H](CC(=O)OC(C)(C)C)c1nnc(C)n1-2 [NCGC00250412-19],-71.4

# — the supplement of paper PMC10077471
